Experimental data as given in patent US5792747A, “Highly potent agonists of growth hormone releasing hormone” (The Administrators of the Tulane Educational Fund, priority 1995, dated 1998).
Not every detail of the peptide structures is certain; ends, links or a residue may be inferred. Some entries repeat one wording, which the source may state once for all of them. Non-standard residues stand in square brackets, D forms with d. Residues, ends and D or L forms follow the SMILES beside them. *: point of attachment. Desaminotyrosyl = O=C(CCc1ccc(O)cc1)*; Agmatine = N=C(N)NCCCCN*; Nle = CCCC[C@H](N)C(=O)O; Orn = NCCC[C@H](N)C(=O)O; Abu = CC[C@H](N)C(=O)O

Tested on: adult male rats
Type: in vivo
Conditions: rat, s.c.

Row | SMILES | GH release following subcutaneous administration (in words)
1 | CCCC[C@H](NC(=O)[C@@H](NC(=O)[C@H](CC(=O)O)NC(=O)[C@H](CCC(N)=O)NC(=O)[C@H](CC(C)C)NC(=O)[C@H](CC(C)C)NC(=O)[C@H](CCCN)NC(=O)[C@H](CCCNC(=N)N)NC(=O)[C@H](C)NC(=O)[C@H](CO)NC(=O)[C@H](CC(C)C)NC(=O)[C@H](CCC(N)=O)NC(=O)[C@H](CC)NC(=O)[C@H](CC(C)C)NC(=O)[C@@H](NC(=O)[C@H](CCCN)NC(=O)[C@H](CCCNC(=N)N)NC(=O)[C@H](Cc1ccc(O)cc1)NC(=O)[C@H](CO)NC(=O)[C@H](CC(N)=O)NC(=O)[C@@H](NC(=O)[C@H](Cc1ccccc1)NC(=O)[C@@H](NC(=O)[C@H](C)NC(=O)[C@H](CC(=O)O)NC(=O)[C@H](C)NC(=O)CCc1ccc(O)cc1)[C@@H](C)CC)[C@@H](C)O)C(C)C)[C@@H](C)CC)C(=O)N[C@@H](CO)C(=O)NCCCCNC(=N)N [Example I, (Dat^1,Orn ^12,21,Abu^15,Nle^27,Agm^29)hGH-RH(1-29)] (Desaminotyrosyl-ADAIFTNSYR[Orn]VL[Abu]QLSAR[Orn]LLQDI[Nle]S-Agmatine) | unusually good results with a prolonged release rate
2 | CCCC[C@H](NC(=O)[C@@H](NC(=O)[C@H](CC(=O)O)NC(=O)[C@H](CCC(N)=O)NC(=O)[C@H](CC(C)C)NC(=O)[C@H](CC(C)C)NC(=O)[C@H](CCCN)NC(=O)[C@H](CCCNC(=N)N)NC(=O)[C@H](C)NC(=O)[C@H](CO)NC(=O)[C@H](CC(C)C)NC(=O)[C@H](CCC(N)=O)NC(=O)[C@H](CC)NC(=O)[C@H](CC(C)C)NC(=O)[C@@H](NC(=O)[C@H](CCCN)NC(=O)[C@H](CCCNC(=N)N)NC(=O)[C@H](Cc1ccc(O)cc1)NC(=O)[C@H](CO)NC(=O)[C@H](CC(N)=O)NC(=O)[C@@H](NC(=O)[C@H](Cc1ccccc1)NC(=O)[C@@H](NC(=O)[C@H](C)NC(=O)[C@H](CC(=O)O)NC(=O)[C@H](C)NC(=O)CCc1ccc(O)cc1)[C@@H](C)CC)[C@@H](C)O)C(C)C)[C@@H](C)CC)C(=O)N[C@@H](CC(=O)O)C(=O)NCCCCNC(=N)N [Example IV, (Dat^1,Orn^12,21,Abu^15,Nle^27,Asp^28,Agm^29)hGH-RH(1-29)] (Desaminotyrosyl-ADAIFTNSYR[Orn]VL[Abu]QLSAR[Orn]LLQDI[Nle]D-Agmatine) | unusually good results with a prolonged release rate
3 | CCCC[C@H](NC(=O)[C@@H](NC(=O)[C@H](CC(=O)O)NC(=O)[C@H](CCC(N)=O)NC(=O)[C@H](CC(C)C)NC(=O)[C@H](CC(C)C)NC(=O)[C@H](CCCN)NC(=O)[C@H](CCCNC(=N)N)NC(=O)[C@H](C)NC(=O)[C@H](CO)NC(=O)[C@H](CC(C)C)NC(=O)[C@H](CCC(N)=O)NC(=O)[C@H](CC)NC(=O)[C@H](CC(C)C)NC(=O)[C@@H](NC(=O)[C@H](CCCN)NC(=O)[C@H](CCCNC(=N)N)NC(=O)[C@H](Cc1ccc(O)cc1)NC(=O)[C@H](CO)NC(=O)[C@@H](NC(=O)[C@@H](NC(=O)[C@H](Cc1ccccc1)NC(=O)[C@@H](NC(=O)[C@H](C)NC(=O)[C@H](CC(=O)O)NC(=O)[C@H](C)NC(=O)CCc1ccc(O)cc1)[C@@H](C)CC)[C@@H](C)O)[C@@H](C)O)C(C)C)[C@@H](C)CC)C(=O)N[C@@H](CC(=O)O)C(=O)NCCCCNC(=N)N [Example V, (Dat^1,Thr^8,Orn^12,21,Abu^15,Nle^27,Asp^28,Agm^29)hGH-RH(1-29)] (Desaminotyrosyl-ADAIFTTSYR[Orn]VL[Abu]QLSAR[Orn]LLQDI[Nle]D-Agmatine) | unusually good results with a prolonged release rate
4 | CCCC[C@H](NC(=O)[C@@H](NC(=O)[C@H](CC(=O)O)NC(=O)[C@H](CCC(N)=O)NC(=O)[C@H](CC(C)C)NC(=O)[C@H](CC(C)C)NC(=O)[C@H](CCCN)NC(=O)[C@H](CCCNC(=N)N)NC(=O)[C@H](C)NC(=O)[C@H](CO)NC(=O)[C@H](CC(C)C)NC(=O)[C@H](CCC(N)=O)NC(=O)[C@H](CC)NC(=O)[C@H](CC(C)C)NC(=O)[C@@H](NC(=O)[C@H](CCCN)NC(=O)[C@H](CCCNC(=N)N)NC(=O)[C@H](Cc1ccc(O)cc1)NC(=O)[C@H](CO)NC(=O)[C@H](CCC(N)=O)NC(=O)[C@@H](NC(=O)[C@H](Cc1ccccc1)NC(=O)[C@@H](NC(=O)[C@H](C)NC(=O)[C@H](CC(=O)O)NC(=O)[C@H](C)NC(=O)CCc1ccc(O)cc1)[C@@H](C)CC)[C@@H](C)O)C(C)C)[C@@H](C)CC)C(=O)N[C@@H](CC(=O)O)C(=O)NCCCCNC(=N)N [Example VI, (Dat^1,Gln^8,Orn^12,21,Abu^15,Nle^27,Asp^28,Agm^29)hGH-RH(1-29)] (Desaminotyrosyl-ADAIFTQSYR[Orn]VL[Abu]QLSAR[Orn]LLQDI[Nle]D-Agmatine) | unusually good results with a prolonged release rate
